This is one part of the list. Single values of this set are uncertain.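 The cells are a human neuroglioma line carrying a green fluorescent autophagy reporter.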
Key:
[1] = tested on: H4 GFP-LC3; assay: cell viability (scaled to control) (fraction of control); higher = more viable cells
[2] = tested on: H4 GFP-LC3; assay: ACBP immunofluorescence intensity (scaled to control) (AU (scaled)); higher = more intracellular ACBP/DBI

SMILES	cell viability ([1]; 6 h)	cell viability ([1]; 24 h)	ACBP immunofluorescence intensity ([2]; 6 h)	ACBP immunofluorescence intensity ([2]; 24 h)
C=CCN1CCc2c(cc(O)c(O)c2Cl)C(c2ccccc2)C1 (racemic) (5 µM)	0.717	1.23	0.939	0.467
CC(C)NCC(O)COc1ccc(CCOCC2CC2)cc1 (stereo unspecified) (5 µM)	0.947	1.06	0.886	0.499
C[N+](C)(C)CC[N+]1(C)Cc2c(Cl)c(Cl)c(Cl)c(Cl)c2C1 (5 µM)	1	0.969	0.908	0.544
CN1[C@@H]2CC[C@H]1C[C@@H](OC(=O)c1c[nH]c3ccccc13)C2 (5 µM)	0.792	1.09	0.995	0.559
CC(C)C[C@H](N)C(=O)N[C@H](C(=O)N[C@H](C(=O)N[C@@H](Cc1ccc(O)cc1)C(=O)N1CCC[C@H]1C(=O)N[C@@H](Cc1c[nH]c2ccccc12)C(=O)N[C@H](C(=O)N[C@@H](CCC(N)=O)C(=O)N[C@@H](CCCN=C(N)N)C(=O)O)[C@@H](C)O)C(C)C)C(C)C (5 µM)	1.19	0.903	0.577	0.593
O=C(Nc1cc(Cl)cc(Cl)c1)[C@H]1CCCC[C@H]1C(=O)O (5 µM)	1.07	1.3	0.788	0.469
C[C@H](C[C@H](N)C(=O)O)C(=O)O (5 µM)	1.16	1.28	0.881	0.806
CC(C)(C)NCC(O)COc1cccc2[nH]c(=O)[nH]c12 (stereo unspecified) (5 µM)	0.592	1.02	0.691	0.444
Nc1nccc2c1ncn2[C@@H]1C[C@H](O)[C@@H](CO)O1 (5 µM)	1	1.1	0.998	0.858
CC(C)NCC(O)COc1ccccc1-n1cccc1 (stereo unspecified) (5 µM)	0.85	0.767	0.947	0.703
Clc1cccc(Cl)c1NC1=NCCN1 (5 µM)	0.761	0.927	0.849	0.476
CNCCC(Oc1ccccc1OC)c1ccccc1 (stereo unspecified) (5 µM)	0.821	0.854	0.896	0.568
C[C@]12CC[C@@H]3c4ccc(O)cc4CC[C@H]3[C@@H]1CC[C@@H]2O (5 µM)	1.18	0.905	0.351	0.738
O=C(O)C1=CCCNC1 (5 µM)	0.78	1.05	0.986	0.699
